Results reported in PMC8384837.
This is one part of the list. At the low end of the ranking the order means little.

target: T1, PUM1 PUF domain R1-QFR R2-VFQ R6-SWD S863Q + R864F + Q867R + N899V + Y900F + N1043S + Y1044W + Q1047D (UniProt Q14671); details: yeast three-hybrid, YBZ-1, SC-Leu-His + 0.5 mM 3-AT, 4 days
T1 sequence: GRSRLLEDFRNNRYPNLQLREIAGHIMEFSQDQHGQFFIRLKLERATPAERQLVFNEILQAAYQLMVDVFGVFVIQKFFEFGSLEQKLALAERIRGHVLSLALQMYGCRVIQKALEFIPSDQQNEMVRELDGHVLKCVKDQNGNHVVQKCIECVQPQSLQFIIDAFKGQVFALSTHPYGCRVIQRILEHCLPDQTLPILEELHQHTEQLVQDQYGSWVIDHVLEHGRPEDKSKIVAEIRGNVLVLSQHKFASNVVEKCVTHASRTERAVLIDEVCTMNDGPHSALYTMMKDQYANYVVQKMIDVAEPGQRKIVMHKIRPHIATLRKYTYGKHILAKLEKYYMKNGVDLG

| Sequence | binding signal (log2 enrichment (interaction score)) |
| --- | --- |
| GGCUAGAACUAGUGGAUCCCCCGGCGCCCGGCGGCUCGAGCCCGGGUAAGUUGCUAUAGUCUGCAUGCCGCCGGGCGCCAUGCCUGCAGGUCGACUCUAGAAAACAUG | -6.33 |
| GGCUAGAACUAGUGGAUCCCCCGGCGCCCGGCGGCUCGAGCCCGGGUAAGUGGACAGAGUCUGCAUGCCGCCGGGCGCCAUGCCUGCAGGUCGACUCUAGAAAACAUG | -5.92 |
| GGCUAGAACUAGUGGAUCCCCCGGCGCCCGGCGGCUCGAGCCCGGGUAAGUGGUCGUAGUCUGCAUGCCGCCGGGCGCCAUGCCUGCAGGUCGACUCUAGAAAACAUG | -5.94 |
| GGCUAGAACUAGUGGAUCCCCCGGCGCCCGGCGGCUCGAGCCCGGGUAAGCUAGAUAAGUCUGCAUGCCGCCGGGCGCCAUGCCUGCAGGUCGACUCUAGAAAACAUG | -6.17 |
| GGCUAGAACUAGUGGAUCCCCCGGCGCCCGGCGGCUCGAGCCCGGGUAAGUUAAAUGAGUCUGCAUGCCGCCGGGCGCCAUGCCUGCAGGUCGACUCUAGAAAACAUG | -6.52 |
| GGCUAGAACUAGUGGAUCCCCCGGCGCCCGGCGGCUCGAGCCCGGGUAAGUUCCAGCAGUCUGCAUGCCGCCGGGCGCCAUGCCUGCAGGUCGACUCUAGAAAACAUG | -3.93 |
| GGCUAGAACUAGUGGAUCCCCCGGCGCCCGGCGGCUCGAGCCCGGGUAAGUUAAAGACGUCUGCAUGCCGCCGGGCGCCAUGCCUGCAGGUCGACUCUAGAAAACAUG | -5.65 |
| GGCUAGAACUAGUGGAUCCCCCGGCGCCCGGCGGCUCGAGCCCGGGUAAGUUUAAAACGUCUGCAUGCCGCCGGGCGCCAUGCCUGCAGGUCGACUCUAGAAAACAUG | -5.78 |
| GGCUAGAACUAGUGGAUCCCCCGGCGCCCGGCGGCUCGAGCCCGGGUAAGGGGCAAAAGUCUGCAUGCCGCCGGGCGCCAUGCCUGCAGGUCGACUCUAGAAAACAUG | -6.43 |
| GGCUAGAACUAGUGGAUCCCCCGGCGCCCGGCGGCUCGAGCCCGGGUAAGUUGACAUUGUCUGCAUGCCGCCGGGCGCCAUGCCUGCAGGUCGACUCUAGAAAACAUG | -6.37 |
| GGCUAGAACUAGUGGAUCCCCCGGCGCCCGGCGGCUCGAGCCCGGGUAAGAGUGAAUAGUCUGCAUGCCGCCGGGCGCCAUGCCUGCAGGUCGACUCUAGAAAACAUG | -7.04 |
| GGCUAGAACUAGUGGAUCCCCCGGCGCCCGGCGGCUCGAGCCCGGGUAAGGGAAGAUAGUCUGCAUGCCGCCGGGCGCCAUGCCUGCAGGUCGACUCUAGAAAACAUG | -6.17 |
| GGCUAGAACUAGUGGAUCCCCCGGCGCCCGGCGGCUCGAGCCCGGGUAAGUGUAGGUAGUCUGCAUGCCGCCGGGCGCCAUGCCUGCAGGUCGACUCUAGAAAACAUG | -4.67 |
| GGCUAGAACUAGUGGAUCCCCCGGCGCCCGGCGGCUCGAGCCCGGGUAAGGUGACUUGGUCUGCAUGCCGCCGGGCGCCAUGCCUGCAGGUCGACUCUAGAAAACAUG | -6.3 |

2 entries from above, with bars between the fields.
Sequence | binding signal (log2 enrichment (interaction score))
GGCUAGAACUAGUGGAUCCCCCGGCGCCCGGCGGCUCGAGCCCGGGUAAGCUAGAUAAGUCUGCAUGCCGCCGGGCGCCAUGCCUGCAGGUCGACUCUAGAAAACAUG | -6.17
GGCUAGAACUAGUGGAUCCCCCGGCGCCCGGCGGCUCGAGCCCGGGUAAGAGUGAAUAGUCUGCAUGCCGCCGGGCGCCAUGCCUGCAGGUCGACUCUAGAAAACAUG | -7.04
